# Laboratory results reported in the supplement of paper PMC6411743.
# Protein sequences, listed by entry. Tags and fused reporters are not part of them. Lines headed by an entry give the natural chain unless they say otherwise; changes in a name come on top.
# UniProt Q8NEZ3: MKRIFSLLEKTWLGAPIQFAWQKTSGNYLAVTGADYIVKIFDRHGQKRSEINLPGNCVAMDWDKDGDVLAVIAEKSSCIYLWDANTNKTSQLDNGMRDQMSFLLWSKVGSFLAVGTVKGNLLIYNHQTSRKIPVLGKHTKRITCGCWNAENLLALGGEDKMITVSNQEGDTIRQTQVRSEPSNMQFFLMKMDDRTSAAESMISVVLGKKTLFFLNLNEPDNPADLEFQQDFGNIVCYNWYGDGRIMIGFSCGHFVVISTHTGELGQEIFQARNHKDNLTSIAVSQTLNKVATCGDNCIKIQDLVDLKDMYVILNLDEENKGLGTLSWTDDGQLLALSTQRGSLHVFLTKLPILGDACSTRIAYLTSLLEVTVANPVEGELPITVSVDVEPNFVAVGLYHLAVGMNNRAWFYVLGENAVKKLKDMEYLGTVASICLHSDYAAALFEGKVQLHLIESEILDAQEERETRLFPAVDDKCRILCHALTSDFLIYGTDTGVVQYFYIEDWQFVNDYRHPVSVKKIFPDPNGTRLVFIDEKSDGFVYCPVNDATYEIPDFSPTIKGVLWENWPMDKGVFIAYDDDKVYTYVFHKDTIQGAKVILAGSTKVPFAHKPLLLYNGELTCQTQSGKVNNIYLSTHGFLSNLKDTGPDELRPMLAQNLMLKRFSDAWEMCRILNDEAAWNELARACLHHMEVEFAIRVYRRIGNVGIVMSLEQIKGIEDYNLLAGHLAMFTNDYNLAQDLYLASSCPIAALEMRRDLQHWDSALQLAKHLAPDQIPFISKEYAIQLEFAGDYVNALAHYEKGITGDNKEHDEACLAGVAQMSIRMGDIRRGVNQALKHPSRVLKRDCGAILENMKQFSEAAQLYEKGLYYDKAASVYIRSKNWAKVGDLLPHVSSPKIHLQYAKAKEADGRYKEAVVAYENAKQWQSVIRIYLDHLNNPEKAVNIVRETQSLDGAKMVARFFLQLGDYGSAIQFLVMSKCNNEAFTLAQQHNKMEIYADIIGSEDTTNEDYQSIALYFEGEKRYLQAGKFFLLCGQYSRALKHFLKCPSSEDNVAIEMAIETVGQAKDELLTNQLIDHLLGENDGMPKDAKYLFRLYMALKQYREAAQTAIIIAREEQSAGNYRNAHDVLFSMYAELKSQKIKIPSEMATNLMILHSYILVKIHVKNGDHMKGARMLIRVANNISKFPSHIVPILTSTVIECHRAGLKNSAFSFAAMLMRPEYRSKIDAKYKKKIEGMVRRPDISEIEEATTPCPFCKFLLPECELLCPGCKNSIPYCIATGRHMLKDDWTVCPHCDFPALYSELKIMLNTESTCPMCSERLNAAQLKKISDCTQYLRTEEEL
# UniProt Q8N3X6: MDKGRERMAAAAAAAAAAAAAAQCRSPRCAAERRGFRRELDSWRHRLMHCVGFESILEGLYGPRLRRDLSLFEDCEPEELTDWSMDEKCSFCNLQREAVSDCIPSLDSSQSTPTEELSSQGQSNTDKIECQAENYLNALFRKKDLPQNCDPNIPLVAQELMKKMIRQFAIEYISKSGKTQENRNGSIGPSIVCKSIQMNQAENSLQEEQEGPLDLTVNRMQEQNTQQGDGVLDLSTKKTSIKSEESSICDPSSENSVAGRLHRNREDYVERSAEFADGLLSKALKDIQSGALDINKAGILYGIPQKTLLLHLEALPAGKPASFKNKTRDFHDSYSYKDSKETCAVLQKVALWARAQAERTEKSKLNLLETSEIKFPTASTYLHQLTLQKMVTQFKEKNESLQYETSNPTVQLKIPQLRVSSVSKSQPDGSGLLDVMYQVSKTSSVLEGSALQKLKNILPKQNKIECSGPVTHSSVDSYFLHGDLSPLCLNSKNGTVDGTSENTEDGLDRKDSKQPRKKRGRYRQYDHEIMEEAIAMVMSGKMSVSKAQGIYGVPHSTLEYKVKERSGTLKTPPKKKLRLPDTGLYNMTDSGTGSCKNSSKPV
# UniProt P43487, whole entry: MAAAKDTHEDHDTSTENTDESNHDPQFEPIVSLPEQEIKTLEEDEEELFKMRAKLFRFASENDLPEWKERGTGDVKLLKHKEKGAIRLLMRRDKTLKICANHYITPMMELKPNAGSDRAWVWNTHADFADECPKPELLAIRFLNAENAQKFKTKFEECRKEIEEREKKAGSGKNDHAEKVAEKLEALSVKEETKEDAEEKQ
# UniProt O95861: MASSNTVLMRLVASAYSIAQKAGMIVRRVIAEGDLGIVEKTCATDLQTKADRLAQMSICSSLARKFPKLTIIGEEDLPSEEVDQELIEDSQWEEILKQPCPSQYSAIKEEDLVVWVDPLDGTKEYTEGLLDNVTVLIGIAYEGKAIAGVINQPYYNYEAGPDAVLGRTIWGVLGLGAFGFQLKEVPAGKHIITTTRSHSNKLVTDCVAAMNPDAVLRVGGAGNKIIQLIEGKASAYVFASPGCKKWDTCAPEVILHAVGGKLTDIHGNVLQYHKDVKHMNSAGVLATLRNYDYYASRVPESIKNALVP
# UniProt Q9Y2S7: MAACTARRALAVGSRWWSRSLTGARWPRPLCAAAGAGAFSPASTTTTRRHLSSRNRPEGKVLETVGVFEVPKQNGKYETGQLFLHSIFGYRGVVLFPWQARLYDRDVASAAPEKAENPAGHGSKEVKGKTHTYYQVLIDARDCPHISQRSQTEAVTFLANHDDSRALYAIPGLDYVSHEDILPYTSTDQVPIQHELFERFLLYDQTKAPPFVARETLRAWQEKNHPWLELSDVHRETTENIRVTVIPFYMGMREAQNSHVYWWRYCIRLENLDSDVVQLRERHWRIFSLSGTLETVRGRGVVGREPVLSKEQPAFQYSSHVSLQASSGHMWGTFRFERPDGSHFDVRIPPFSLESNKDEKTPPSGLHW
# UniProt A6NC98: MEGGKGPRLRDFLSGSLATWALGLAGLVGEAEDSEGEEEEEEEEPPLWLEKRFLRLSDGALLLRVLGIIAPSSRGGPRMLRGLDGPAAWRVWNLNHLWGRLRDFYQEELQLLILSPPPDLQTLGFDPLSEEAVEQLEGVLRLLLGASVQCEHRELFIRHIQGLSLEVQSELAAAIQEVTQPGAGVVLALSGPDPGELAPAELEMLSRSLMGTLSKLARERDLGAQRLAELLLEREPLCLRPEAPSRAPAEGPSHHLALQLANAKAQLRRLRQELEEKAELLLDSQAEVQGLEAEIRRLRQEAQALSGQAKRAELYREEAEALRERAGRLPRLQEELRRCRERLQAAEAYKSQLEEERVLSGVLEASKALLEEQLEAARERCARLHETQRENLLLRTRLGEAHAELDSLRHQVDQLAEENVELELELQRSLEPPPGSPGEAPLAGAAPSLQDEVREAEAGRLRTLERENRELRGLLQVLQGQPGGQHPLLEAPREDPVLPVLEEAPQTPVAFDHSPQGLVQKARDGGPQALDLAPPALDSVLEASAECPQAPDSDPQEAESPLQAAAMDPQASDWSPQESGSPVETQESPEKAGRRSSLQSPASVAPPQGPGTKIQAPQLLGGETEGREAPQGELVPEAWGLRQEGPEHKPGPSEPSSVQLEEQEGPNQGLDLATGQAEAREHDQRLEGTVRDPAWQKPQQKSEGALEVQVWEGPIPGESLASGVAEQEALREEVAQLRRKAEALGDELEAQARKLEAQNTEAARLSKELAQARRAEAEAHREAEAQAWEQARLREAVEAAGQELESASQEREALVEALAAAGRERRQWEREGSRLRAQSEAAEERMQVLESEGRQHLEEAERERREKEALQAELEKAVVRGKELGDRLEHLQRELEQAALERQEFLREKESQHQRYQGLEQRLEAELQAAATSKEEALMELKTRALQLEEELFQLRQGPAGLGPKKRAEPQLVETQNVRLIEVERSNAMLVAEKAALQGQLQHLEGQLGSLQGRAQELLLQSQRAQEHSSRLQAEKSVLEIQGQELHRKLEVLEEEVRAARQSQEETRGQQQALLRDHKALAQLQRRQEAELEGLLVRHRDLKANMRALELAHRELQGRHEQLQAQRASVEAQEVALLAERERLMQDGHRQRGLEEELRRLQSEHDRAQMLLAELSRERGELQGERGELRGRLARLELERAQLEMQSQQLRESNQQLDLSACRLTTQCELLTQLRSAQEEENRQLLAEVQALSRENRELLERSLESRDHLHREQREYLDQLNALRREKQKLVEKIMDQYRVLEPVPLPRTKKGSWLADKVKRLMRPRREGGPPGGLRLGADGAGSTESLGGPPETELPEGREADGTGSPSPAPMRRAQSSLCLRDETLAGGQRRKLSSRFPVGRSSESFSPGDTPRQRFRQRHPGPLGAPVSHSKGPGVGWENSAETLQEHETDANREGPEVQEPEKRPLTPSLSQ
# UniProt Q53HC9: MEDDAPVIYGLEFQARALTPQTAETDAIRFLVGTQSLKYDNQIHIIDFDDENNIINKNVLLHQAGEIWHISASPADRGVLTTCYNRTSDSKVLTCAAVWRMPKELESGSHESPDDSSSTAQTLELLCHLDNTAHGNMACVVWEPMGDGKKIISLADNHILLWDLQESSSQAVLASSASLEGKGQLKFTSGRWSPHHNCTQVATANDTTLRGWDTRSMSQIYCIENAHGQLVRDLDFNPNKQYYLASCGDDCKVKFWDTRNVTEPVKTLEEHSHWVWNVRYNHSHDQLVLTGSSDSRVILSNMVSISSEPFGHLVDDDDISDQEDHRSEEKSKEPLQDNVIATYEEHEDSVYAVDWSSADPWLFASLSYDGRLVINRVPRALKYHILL
# UniProt Q9UKT5: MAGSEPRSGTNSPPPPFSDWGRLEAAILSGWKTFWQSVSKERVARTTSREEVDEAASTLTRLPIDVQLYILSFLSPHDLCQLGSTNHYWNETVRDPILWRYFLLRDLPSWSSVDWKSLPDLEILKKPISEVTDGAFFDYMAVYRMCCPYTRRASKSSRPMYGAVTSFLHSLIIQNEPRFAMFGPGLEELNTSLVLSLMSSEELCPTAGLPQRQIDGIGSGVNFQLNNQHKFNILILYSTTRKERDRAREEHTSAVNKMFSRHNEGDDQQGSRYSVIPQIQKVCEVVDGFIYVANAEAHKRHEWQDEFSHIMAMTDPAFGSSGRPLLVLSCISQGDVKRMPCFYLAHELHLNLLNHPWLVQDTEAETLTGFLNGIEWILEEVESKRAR
# UniProt Q86WW8: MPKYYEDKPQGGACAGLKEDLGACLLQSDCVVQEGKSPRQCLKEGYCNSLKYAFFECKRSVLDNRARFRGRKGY
# UniProt Q96GQ7: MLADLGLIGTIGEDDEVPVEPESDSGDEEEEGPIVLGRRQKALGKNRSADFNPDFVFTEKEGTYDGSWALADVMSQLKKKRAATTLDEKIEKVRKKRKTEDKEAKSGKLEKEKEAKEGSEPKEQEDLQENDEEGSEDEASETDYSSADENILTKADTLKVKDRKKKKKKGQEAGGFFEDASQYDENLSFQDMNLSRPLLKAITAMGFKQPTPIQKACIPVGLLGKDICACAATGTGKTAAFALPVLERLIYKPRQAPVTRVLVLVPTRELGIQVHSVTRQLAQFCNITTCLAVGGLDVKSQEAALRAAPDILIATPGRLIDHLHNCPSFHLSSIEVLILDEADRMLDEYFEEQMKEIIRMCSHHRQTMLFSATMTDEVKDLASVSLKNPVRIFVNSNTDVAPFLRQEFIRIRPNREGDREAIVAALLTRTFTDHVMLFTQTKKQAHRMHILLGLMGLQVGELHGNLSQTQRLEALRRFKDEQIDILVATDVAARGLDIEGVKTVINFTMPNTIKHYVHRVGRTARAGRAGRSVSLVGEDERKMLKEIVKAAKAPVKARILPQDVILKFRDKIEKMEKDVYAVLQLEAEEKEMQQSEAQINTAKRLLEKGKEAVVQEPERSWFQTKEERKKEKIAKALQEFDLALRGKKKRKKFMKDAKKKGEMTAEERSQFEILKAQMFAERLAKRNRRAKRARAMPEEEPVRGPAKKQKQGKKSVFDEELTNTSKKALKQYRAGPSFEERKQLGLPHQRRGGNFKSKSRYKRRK
# UniProt Q9BUL8: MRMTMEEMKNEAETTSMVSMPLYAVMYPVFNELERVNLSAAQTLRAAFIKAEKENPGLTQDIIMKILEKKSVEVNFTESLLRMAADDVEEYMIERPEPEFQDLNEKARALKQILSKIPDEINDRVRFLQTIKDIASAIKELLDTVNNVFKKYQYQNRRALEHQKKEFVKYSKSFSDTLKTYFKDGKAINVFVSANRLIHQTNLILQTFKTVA
# UniProt Q9P289: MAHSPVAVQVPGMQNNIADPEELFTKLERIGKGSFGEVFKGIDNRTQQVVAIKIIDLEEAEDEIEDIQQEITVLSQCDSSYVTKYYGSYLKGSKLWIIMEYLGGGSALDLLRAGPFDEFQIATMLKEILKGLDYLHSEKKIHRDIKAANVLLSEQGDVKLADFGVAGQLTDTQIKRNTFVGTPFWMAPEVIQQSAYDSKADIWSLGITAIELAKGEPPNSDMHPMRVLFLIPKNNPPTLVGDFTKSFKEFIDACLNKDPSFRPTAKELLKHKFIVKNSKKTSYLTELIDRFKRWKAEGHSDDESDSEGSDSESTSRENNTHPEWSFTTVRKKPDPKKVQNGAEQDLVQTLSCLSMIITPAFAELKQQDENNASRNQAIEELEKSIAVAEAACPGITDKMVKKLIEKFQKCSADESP
# ± gives the standard deviation of the averaged measurements. Only a part is listed here, and it is no random draw. Small differences around the control level are noise.
# Compound: Nc1ncnc2c1ncn2[C@@H]1O[C@H](COP(=O)(O)OP(=O)(O)NP(=O)(O)O)[C@@H](O)[C@H]1O [adenylyl imidodiphosphate]
# Assay: NP40-soluble protein abundance relative to vehicle (solubility fold change) (ratio); higher = more soluble protein in presence of AMP-PNP
# Details: concentration: 0.1mM
# Outline: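 Crude Jurkat lysate, prepared by Dounce homogenisation, was exposed to eight concentrations from 0.1 to 10 mM for 10 min at room temperature and then 3 min at 37 °C. Solubilisation used 0.8% NP40 with benzonase for 60 min at 4 °C, followed by ultracentrifugation and TMT labelling of the supernatant for LC-MS/MS. After vsn normalisation of intensities, each value is the fold change against the detergent-processed vehicle within each replicate, across three independent experiments.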
row,Target,NP40-soluble protein abundance
1,D6RE75 and related entries (UniProt Q8NEZ3),0.9989 ± 0.0036
2,C9JI46 and related entries (UniProt Q8N3X6),0.976 ± 0.053
3,E5RG17 and related entries (UniProt Q6P1N9),0.975 ± 0.02
4,A9Z1X7 and related entries (UniProt Q8IYB3),1.01 ± 0.027
5,B1AK44 and related entries (UniProt Q9UI95),1.042 ± 0.0094
6,C9JJ34 and related entries (UniProt P43487),0.997 ± 0.1
7,A6NF51 and related entries (UniProt O95861),0.999 ± 0.018
8,B4DEM9 and related entries (UniProt Q9Y2S7),0.985 ± 0.015
9,CCDC88B (UniProt A6NC98),0.995 ± 0.0073
10,A8MUM1 and related entries (UniProt Q53HC9),1 ± 0.039
11,C9JAX1 and related entries (UniProt Q16595),0.922 ± 0.053
12,B4E1E4 and related entries (UniProt O60573),0.984 ± 0.02
13,B1AQ74 and related entries (UniProt Q6NSI4),0.9777 ± 0.0062
14,C9JCC6 and related entries (UniProt Q14919),1.05 ± 0.11
15,D6RAJ6 and related entries (UniProt Q9UKT5),0.987 ± 0.032
16,B9A057 and related entries (UniProt Q86WW8),1.03 ± 0.05
17,B7Z6D5 and related entries (UniProt Q96GQ7),1.009 ± 0.0091
18,C9J5C3 and related entries (UniProt Q9BUL8),1.01 ± 0.032
19,B4E0Y9 and related entries (UniProt Q9P289),0.986 ± 0.03

# Taken from above.
# NP40-soluble protein abundance with E5RG17 and related entries (UniProt Q6P1N9) is entered as 0.975 ± 0.02
# NP40-soluble protein abundance with B4E0Y9 and related entries (UniProt Q9P289) is entered as 0.986 ± 0.03
